From paper PMC9240053 come the findings set out here.

Amino acid sequences for entries named in this document (tags omitted). A change or cut given only in a name is not applied to a line headed by its entry. Chains listed by the source or under a name are the forms on record and can include a tag or linker. Residues count along the entry.
UniProt P35569: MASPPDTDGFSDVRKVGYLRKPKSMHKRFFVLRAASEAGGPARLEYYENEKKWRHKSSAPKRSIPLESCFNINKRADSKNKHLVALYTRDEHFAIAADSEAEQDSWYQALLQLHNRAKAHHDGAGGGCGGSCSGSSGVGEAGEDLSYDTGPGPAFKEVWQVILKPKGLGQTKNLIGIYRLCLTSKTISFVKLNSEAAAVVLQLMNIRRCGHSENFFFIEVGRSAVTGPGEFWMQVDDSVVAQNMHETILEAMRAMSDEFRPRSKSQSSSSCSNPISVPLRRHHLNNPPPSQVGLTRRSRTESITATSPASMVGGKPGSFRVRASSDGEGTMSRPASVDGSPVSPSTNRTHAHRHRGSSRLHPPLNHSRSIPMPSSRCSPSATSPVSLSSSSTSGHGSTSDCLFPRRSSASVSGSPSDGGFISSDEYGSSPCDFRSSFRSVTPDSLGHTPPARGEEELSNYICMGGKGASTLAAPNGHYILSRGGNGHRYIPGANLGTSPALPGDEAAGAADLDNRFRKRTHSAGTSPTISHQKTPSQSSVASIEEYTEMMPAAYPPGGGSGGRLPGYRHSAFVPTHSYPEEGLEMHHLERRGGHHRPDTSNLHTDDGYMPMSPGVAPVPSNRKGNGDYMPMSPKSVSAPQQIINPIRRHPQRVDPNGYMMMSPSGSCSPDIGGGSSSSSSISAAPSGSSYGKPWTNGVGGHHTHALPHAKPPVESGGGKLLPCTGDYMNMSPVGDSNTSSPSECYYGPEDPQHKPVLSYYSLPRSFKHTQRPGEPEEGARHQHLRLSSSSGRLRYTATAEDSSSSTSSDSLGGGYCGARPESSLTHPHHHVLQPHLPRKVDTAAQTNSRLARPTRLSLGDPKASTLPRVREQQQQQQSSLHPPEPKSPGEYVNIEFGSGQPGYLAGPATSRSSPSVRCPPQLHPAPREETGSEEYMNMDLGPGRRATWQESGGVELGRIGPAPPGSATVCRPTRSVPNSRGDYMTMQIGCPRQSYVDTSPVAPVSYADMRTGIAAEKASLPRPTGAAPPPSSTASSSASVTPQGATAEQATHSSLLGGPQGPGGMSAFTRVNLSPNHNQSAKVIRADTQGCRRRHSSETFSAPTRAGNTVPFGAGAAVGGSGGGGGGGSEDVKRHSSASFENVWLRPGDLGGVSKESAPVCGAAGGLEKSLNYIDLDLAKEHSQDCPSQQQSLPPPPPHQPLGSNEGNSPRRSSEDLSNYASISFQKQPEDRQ
FLAG-tagged mIRS-1 801–1000: residues 801-1000 of P35569
mIRS-1 ΔSAR (Δ300-600), FLAG-tagged and GFP-tagged copies (P35569, form named): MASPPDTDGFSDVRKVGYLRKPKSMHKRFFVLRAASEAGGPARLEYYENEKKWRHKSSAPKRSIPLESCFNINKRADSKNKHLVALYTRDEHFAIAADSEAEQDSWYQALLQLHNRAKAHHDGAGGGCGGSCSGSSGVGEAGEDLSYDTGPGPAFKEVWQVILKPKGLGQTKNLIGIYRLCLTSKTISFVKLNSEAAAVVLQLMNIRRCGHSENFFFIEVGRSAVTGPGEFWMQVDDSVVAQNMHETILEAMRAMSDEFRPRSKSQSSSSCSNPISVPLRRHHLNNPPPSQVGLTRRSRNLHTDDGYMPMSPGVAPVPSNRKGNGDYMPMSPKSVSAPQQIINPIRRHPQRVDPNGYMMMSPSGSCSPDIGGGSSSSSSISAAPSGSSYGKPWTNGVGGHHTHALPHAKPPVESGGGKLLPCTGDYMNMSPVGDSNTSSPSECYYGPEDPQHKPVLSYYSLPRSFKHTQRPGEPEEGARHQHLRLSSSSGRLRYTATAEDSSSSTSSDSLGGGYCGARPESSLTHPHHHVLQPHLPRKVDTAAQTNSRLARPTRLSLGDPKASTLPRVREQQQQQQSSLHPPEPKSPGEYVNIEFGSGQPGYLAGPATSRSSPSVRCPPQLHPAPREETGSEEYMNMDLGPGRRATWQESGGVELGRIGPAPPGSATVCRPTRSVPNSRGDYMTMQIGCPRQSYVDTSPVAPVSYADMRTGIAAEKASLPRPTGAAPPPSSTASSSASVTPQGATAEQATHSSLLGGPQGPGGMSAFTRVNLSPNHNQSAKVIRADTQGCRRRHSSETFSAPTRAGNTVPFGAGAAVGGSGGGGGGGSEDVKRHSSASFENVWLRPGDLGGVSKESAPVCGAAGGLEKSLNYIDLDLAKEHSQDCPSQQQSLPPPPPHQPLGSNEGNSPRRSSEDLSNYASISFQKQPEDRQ
FLAG-tagged mIRS-1 801–1000 G965R mutant (P35569, form named): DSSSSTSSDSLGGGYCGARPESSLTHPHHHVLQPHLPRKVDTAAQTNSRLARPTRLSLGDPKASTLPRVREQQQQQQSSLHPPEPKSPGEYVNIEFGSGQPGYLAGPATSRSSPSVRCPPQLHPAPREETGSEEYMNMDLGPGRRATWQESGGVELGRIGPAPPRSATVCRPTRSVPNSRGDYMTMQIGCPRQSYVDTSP
UniProt Q60631: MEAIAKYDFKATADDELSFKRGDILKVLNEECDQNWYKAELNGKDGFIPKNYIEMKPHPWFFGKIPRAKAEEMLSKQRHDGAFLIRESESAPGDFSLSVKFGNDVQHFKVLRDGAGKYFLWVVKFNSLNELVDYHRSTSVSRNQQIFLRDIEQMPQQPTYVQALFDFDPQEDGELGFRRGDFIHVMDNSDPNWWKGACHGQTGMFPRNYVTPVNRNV

No constants are given. Whether binding was seen depends on the method and setting. Binding seen in cells or lysates may run through a third protein. Some results given as binding are weak or reduced against the parent protein; the word gives no strength.

In assay [1] the target is GFP-mIRS-1 ΔSAR in the C2C12-IRS-1 KO/GFP-mIRS-1 ΔSAR cell line (mouse) (UniProt P35569). Briefly: co-IP; GFP-tagged IRS-1 wildtype or mutants immunoprecipitated from IGF-1-stimulated or control C2C12-IRS-1 KO stable cell lines; Western blot with p85 or Grb2 antibodies. In general terms: Immunoblotting shows a protein as a band on a membrane.
Assay [2] concerns the target GFP-mIRS-1 in the C2C12-IRS-1 KO/GFP-mIRS-1 cell line (mouse) (UniProt P35569). Described as above.
Assay [3] addresses IRS-1 (as used with PTP1B, Supplementary Fig. S3a, b) (not stated (human or mouse cDNA cloned)) (UniProt P35569). Briefly: co-IP; self-association of IRS-1 in the presence of PTP1B wildtype or D181A (Supplementary Fig. S3b); legend not shown.
In assay [4] the target is mouse insulin receptor substrate 1 (mIRS-1), FLAG-tagged and GFP-tagged copies (mouse) (UniProt P35569). In words: co-IP; FLAG-tagged and GFP-tagged constructs co-transfected into 293T cells; lysis in 150 mM NaCl, 50 mM Tris pH 7.3, 0.25 mM EDTA, 1% sodium deoxycholate, 1% Triton X-100; anti-FLAG M2 beads; Western blot; in some panels serum starvation then IGF-1 or insulin (self-association of mIRS-1 enhanced); Supplementary Fig. S4i-k taken as the same format.

The target of assay [5] is mIRS-1 ΔSAR (Δ300-600), FLAG-tagged and GFP-tagged copies (mouse) (UniProt P35569). Described as above.
Assay [6] addresses mIRS-1 301–600 (self-association region, SAR), FLAG-tagged and GFP-tagged copies (mouse) (UniProt P35569). The assay is described as above.
The target in assay [7] is FLAG-tagged mIRS-1 801–1000 G965R mutant (mouse) (UniProt P35569). Described as above.
Assay [8] addresses FLAG-tagged mIRS-1 801–1000 (mouse) (UniProt P35569). The assay is described as above.
Assay [9] concerns the target IRS-1 (as used with PTP1B, Supplementary Fig. S3a, b) (not stated (human or mouse cDNA cloned)) (UniProt P35569). In words: co-IP; PTP1B wildtype or D181A with IRS-1 (Supplementary Fig. S3a); legend not shown, immunoprecipitation is the only interaction method in the methods.

For “Grb2 (endogenous) (from UniProt Q60631 1-217)”, the binding result in assay [1] is given as “no binding”; in [2], “binds”.

As for “IRS-1 (as used with PTP1B, Supplementary Fig. S3a, b) (from UniProt P35569 1-1233)”, the binding result in assay [3] was “binds”.

Take “mouse insulin receptor substrate 1 (mIRS-1), FLAG-tagged and GFP-tagged copies (from UniProt P35569 1-1233)”: the binding result in [4] is recorded as “binds”.

Consider “mIRS-1 ΔSAR (Δ300-600), FLAG-tagged and GFP-tagged copies (from UniProt P35569 1-1233)”, for which, in assay [5], the binding entry is given as “binds”.

Take “mIRS-1 301–600 (self-association region, SAR), FLAG-tagged and GFP-tagged copies (from UniProt P35569 301-600) (domain or fragment)”: the binding entry in assay [6], in assay [7] and in [8] was “binds” in each case.

Take “GFP-mIRS-1 IDR (301–1233) (from UniProt P35569 301-1233) (domain or fragment)”: the binding entry in [6] is listed as “binds”.

B1: PTP1B D181A mutant (enzyme, UniProt P18031 1-435)
chain: MEMEKEFEQIDKSGSWAAIYQDIRHEASDFPCRVAKLPKNKNRNRYRDVSPFDHSRIKLHQEDNDYINASLIKMEEAQRSYILTQGPLPNTCGHFWEMVWEQKSRGVVMLNRVMEKGSLKCAQYWPQKEEKEMIFEDTNLKLTLISEDIKSYYTVRQLELENLTTQETREILHFHYTTWPAFGVPESPASFLNFLFKVRESGSLSPEHGPVVVHCSAGIGRSGTFCLADTCLLLMDKRKDPSSVDIKKVLLEMRKFRMGLIQTADQLRFSYLAVIEGAKFIMGDSSVQDQWKELSHEDLEPPPEHIPPPPRPPKRILEPHNGKCREFFPNHQWVKEETQEDKDCPIKEEKGSPLNAAPYGIESMSQDTEVRSRVVGGSLRGAQAASPAKGEPSLPEKDEDHALSYWKPFLVNMCVATVLTAGAYLCYRFLFNSNT
Regarding B1, the binding entry in assay [9] is listed as “binds”.
